# Measurements reported in PubChem BioAssay AID1259287 (Sanger Institute, 2017).
# Screen: 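Follow-up of selected drug and gene pairs in HCT15 cells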 (follow-up of hits)
# Cell system: human HCT15 colorectal cancer cells
# Reagent: single siRNA against human genes
# Challenge: BYL719 1 µM, cetuximab 5 µg/ml or trametinib 10 nM, or DMSO vehicle
# Measurement: 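Survival scaled to control siRNA wells, then a synergy score per drug giving combined effect beyond the expected one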
# Direction: synergy score with BYL719 and synergy score with cetuximab and synergy score with trametinib: higher = stronger combined killing than expected
# Call rule: 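Called active when the synergy score is above 0.10 for one or more of the three drugs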
# Meaning of the calls: active = synergy with at least one drug; inactive = no synergy with any drug
# In all, the deposit lists 160 reagents; shown is an unselected part. 19 of them (12%) were called active. 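Viability seems capped at 1; calls apply to HCT15 cells only, not to validation across other lines.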 Unmarked entries are inactive. Reagents against one gene are numbered here. Further read-outs or replicates are left out here. Reagent sequences are not shown. The record does not give: the amount of reagent, the time to read-out.
The first 6 entries, to show the layout:
gene,reagent no.,synergy score with BYL719,synergy score with cetuximab,synergy score with trametinib
SF3B1 (splicing factor 3b subunit 1),1,-0.0536,-0.00549,-0.0197
SF3B1 (splicing factor 3b subunit 1),2,-0.017,-0.00483,0.0258
SF3B1 (splicing factor 3b subunit 1),3,0.0106,-0.0618,-0.00499
SF3B1 (splicing factor 3b subunit 1),4,-0.0525,-0.123,-0.0389
STK36 (serine/threonine kinase 36),1,-0.151,-0.0751,-0.0958
STK36 (serine/threonine kinase 36),2,-0.0955,-0.114,-0.0197

The list itself, from the first entry:
gene,reagent no.,synergy score with BYL719,synergy score with cetuximab,synergy score with trametinib
SF3B1 (splicing factor 3b subunit 1),1,-0.0536,-0.00549,-0.0197
SF3B1 (splicing factor 3b subunit 1),2,-0.017,-0.00483,0.0258
SF3B1 (splicing factor 3b subunit 1),3,0.0106,-0.0618,-0.00499
SF3B1 (splicing factor 3b subunit 1),4,-0.0525,-0.123,-0.0389
STK36 (serine/threonine kinase 36),1,-0.151,-0.0751,-0.0958
STK36 (serine/threonine kinase 36),2,-0.0955,-0.114,-0.0197
STK36 (serine/threonine kinase 36),3,-0.171,-0.0428,0.0523
STK36 (serine/threonine kinase 36),4,-0.165,-0.192,-0.0307
HUNK (hormonally up-regulated Neu-associated kinase),1,0.162 (active),-0.114,-0.0362
HUNK (hormonally up-regulated Neu-associated kinase),2,0.00387 (active),-0.13,0.115
HUNK (hormonally up-regulated Neu-associated kinase),3,0.068 (active),0.105,0.248
HUNK (hormonally up-regulated Neu-associated kinase),4,-0.00908,-0.0817,0.0248
SYK (spleen associated tyrosine kinase),1,-0.051,-0.183,0.0466
SYK (spleen associated tyrosine kinase),2,-0.0133,0.0602,0.0957
SYK (spleen associated tyrosine kinase),3,0.0232,-0.183,0.0103
SYK (spleen associated tyrosine kinase),4,-0.0183,-0.0444,-0.0386
SYNCRIP (synaptotagmin binding cytoplasmic RNA interacting protein),1,0.0255 (active),-0.045,0.127
SYNCRIP (synaptotagmin binding cytoplasmic RNA interacting protein),2,-0.0352,-0.147,0.0176
SYNCRIP (synaptotagmin binding cytoplasmic RNA interacting protein),3,0.0287,-0.0831,0.00221
SYNCRIP (synaptotagmin binding cytoplasmic RNA interacting protein),4,-0.106,-0.203,-0.133
"PRAG1 (PEAK1 related, kinase-activating pseudokinase 1)",1,0.241 (active),-0.0984,-0.0188
"PRAG1 (PEAK1 related, kinase-activating pseudokinase 1)",2,0.224 (active),-0.0347,-0.101
"PRAG1 (PEAK1 related, kinase-activating pseudokinase 1)",3,-0.179,-0.0385,-0.231
"PRAG1 (PEAK1 related, kinase-activating pseudokinase 1)",4,-0.107,-0.116,-0.138
IKBKB (inhibitor of nuclear factor kappa B kinase subunit beta),1,-0.0853,0.0336,-0.213
IKBKB (inhibitor of nuclear factor kappa B kinase subunit beta),2,0.0238,0.0418,-0.0726
IKBKB (inhibitor of nuclear factor kappa B kinase subunit beta),3,-0.0753,-0.0659,-0.0975
IKBKB (inhibitor of nuclear factor kappa B kinase subunit beta),4,-0.16,-0.0793,-0.0702
MAPK4 (mitogen-activated protein kinase 4),1,-0.0663,-0.105,-0.179
MAPK4 (mitogen-activated protein kinase 4),2,-0.165,-0.296,-0.127
MAPK4 (mitogen-activated protein kinase 4),3,0.0317,0,-0.0126
MAPK4 (mitogen-activated protein kinase 4),4,-0.0395,0.0192,-0.137
CRIM1 (cysteine rich transmembrane BMP regulator 1),1,0.0857,-0.0842,-0.00525
CRIM1 (cysteine rich transmembrane BMP regulator 1),2,-0.251,-0.0617,-0.279
CRIM1 (cysteine rich transmembrane BMP regulator 1),3,0.00956,0.026,-0.0817
CRIM1 (cysteine rich transmembrane BMP regulator 1),4,-0.0599,-0.158,-0.224
"GUCY2D (guanylate cyclase 2D, retinal)",1,-0.0159,-0.0734,-0.0766
"GUCY2D (guanylate cyclase 2D, retinal)",2,-0.0833,-0.202,0.0612
"GUCY2D (guanylate cyclase 2D, retinal)",3,-0.191,-0.184,-0.0845
"GUCY2D (guanylate cyclase 2D, retinal)",4,-0.134,-0.0444,-0.0773
CDK6 (cyclin dependent kinase 6),1,-0.0412 (active),-0.0144,0.133
CDK6 (cyclin dependent kinase 6),2,-0.00239,-0.177,0.0247
CDK6 (cyclin dependent kinase 6),3,-0.0793,-0.0444,0.0465
CDK6 (cyclin dependent kinase 6),4,0.0817 (active),0.0245,0.143
MARK3 (microtubule affinity regulating kinase 3),1,-0.0302,-0.0444,0.0786
MARK3 (microtubule affinity regulating kinase 3),2,-0.174,-0.12,0.0127
MARK3 (microtubule affinity regulating kinase 3),3,-0.127,-0.113,-0.181
MARK3 (microtubule affinity regulating kinase 3),4,-0.00899,-0.0281,0.0943
"BRAF (B-Raf proto-oncogene, serine/threonine kinase)",1,-0.00394,-0.0286,-0.139
"BRAF (B-Raf proto-oncogene, serine/threonine kinase)",2,0.0228,-0.13,0.055
"BRAF (B-Raf proto-oncogene, serine/threonine kinase)",3,-0.0077,0.042,-0.0243
"BRAF (B-Raf proto-oncogene, serine/threonine kinase)",4,-0.0171,-0.174,-0.0557
CDKN2D (cyclin dependent kinase inhibitor 2D),1,-0.104,-0.0182,-0.0565
CDKN2D (cyclin dependent kinase inhibitor 2D),2,-0.149 (active),-0.0514,0.136
CDKN2D (cyclin dependent kinase inhibitor 2D),3,-0.0266,-0.0444,-0.101
CDKN2D (cyclin dependent kinase inhibitor 2D),4,0.00481,0.0231,-0.0296
BMPR2 (bone morphogenetic protein receptor type 2),1,-0.0865,-0.0924,-0.171
BMPR2 (bone morphogenetic protein receptor type 2),2,-0.117,-0.0776,-0.122
BMPR2 (bone morphogenetic protein receptor type 2),3,-0.244,-0.133,-0.139
BMPR2 (bone morphogenetic protein receptor type 2),4,-0.166,-0.0479,-0.138
